Assay [1] concerns the target T1, full length Set1 fused to the Gal4 DNA binding domain (S. cerevisiae) (UniProt P38827).
T1 sequence: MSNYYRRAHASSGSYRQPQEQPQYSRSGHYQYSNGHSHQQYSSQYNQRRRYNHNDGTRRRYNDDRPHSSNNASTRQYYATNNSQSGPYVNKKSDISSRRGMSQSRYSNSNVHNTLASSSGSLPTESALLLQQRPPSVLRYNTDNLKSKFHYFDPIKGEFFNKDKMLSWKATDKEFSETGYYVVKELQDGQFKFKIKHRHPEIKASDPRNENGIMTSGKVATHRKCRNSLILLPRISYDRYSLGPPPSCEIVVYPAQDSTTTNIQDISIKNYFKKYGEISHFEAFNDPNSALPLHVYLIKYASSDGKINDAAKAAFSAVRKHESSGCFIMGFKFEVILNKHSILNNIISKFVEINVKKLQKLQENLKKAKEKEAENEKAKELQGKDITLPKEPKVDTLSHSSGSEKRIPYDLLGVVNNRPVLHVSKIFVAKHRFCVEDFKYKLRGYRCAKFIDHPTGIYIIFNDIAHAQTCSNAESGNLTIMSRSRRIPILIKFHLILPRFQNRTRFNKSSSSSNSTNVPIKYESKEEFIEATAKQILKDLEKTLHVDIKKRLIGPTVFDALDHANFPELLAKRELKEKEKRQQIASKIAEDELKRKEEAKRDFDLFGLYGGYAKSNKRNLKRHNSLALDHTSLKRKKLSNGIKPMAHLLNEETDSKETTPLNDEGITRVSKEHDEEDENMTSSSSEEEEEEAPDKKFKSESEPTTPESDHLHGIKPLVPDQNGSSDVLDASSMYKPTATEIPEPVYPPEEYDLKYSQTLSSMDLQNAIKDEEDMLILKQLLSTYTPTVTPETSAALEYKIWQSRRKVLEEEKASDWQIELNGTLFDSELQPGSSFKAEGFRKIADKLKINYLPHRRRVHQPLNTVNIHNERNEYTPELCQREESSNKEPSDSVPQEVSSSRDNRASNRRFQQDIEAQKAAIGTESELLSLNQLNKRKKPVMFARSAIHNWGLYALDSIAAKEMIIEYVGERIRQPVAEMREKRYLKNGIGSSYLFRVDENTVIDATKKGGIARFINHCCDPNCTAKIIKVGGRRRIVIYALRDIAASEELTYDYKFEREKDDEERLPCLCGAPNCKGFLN
Nature of the assay: two-hybrid; PJ69-4A carrying swd2Δ (lethality suppressed by Sen1 amino acids 1890–2092); HIS3 reporter.

The target in assay [2] is T2, Set1 fragment F1 (aa 1–236) fused to Gal4 BD (S. cerevisiae) (UniProt P38827).
T2 sequence: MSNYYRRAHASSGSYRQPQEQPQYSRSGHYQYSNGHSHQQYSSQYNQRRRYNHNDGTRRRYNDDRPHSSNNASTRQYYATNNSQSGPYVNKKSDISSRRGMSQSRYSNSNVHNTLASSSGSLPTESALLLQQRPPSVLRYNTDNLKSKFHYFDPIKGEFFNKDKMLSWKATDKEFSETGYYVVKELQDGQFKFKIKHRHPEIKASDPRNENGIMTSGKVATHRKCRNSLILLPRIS
The description is as above.

In assay [3] the target is T1, full length Set1 fused to the Gal4 DNA binding domain (S. cerevisiae). Nature of the assay: two-hybrid; genome-wide screen of a S. cerevisiae genomic library (Hybrigenics) with Gal4 BD–Set1 (pB66) as bait.

These are yes or no findings as the source states them, for the method shown. Binding calls can cover weak binding; strength is not graded here. Tags and fused reporters may be left off the sequences shown.

For the substance “14-CTD repeat fragment of Rpb1 fused to the Gal4 activation domain (S. cerevisiae) (domain or fragment)”, the results for the binding result in assay [1], in assay [2] and in assay [3] were “binds weakly”, “binds weakly” and “binds”, respectively.

(Values after article PMC7195483.)
